Reference: article PMC2614481
No constants are given. Whether binding was seen depends on the method and setting. In cells and extracts the contact can be indirect. These calls come from enrichment with a bait or labelling near it, and not all partners need be listed. Each block holds one binder with its values, some of them ahead of it.

Legend:
Sp_Set3p (S. pombe) = biological target: T1, Sp_Set3p (S. pombe) (UniProt Q10362); assay: affinity purification with mass spectrometry; TAP of baits TAP-tagged at their genes from S. pombe extracts; eluates on 6-18% gels, Coomassie, bands and slices identified by MALDI peptide mapping and LC-MS/MS; common background removed, A-index cut-off 1.75
T1 sequence: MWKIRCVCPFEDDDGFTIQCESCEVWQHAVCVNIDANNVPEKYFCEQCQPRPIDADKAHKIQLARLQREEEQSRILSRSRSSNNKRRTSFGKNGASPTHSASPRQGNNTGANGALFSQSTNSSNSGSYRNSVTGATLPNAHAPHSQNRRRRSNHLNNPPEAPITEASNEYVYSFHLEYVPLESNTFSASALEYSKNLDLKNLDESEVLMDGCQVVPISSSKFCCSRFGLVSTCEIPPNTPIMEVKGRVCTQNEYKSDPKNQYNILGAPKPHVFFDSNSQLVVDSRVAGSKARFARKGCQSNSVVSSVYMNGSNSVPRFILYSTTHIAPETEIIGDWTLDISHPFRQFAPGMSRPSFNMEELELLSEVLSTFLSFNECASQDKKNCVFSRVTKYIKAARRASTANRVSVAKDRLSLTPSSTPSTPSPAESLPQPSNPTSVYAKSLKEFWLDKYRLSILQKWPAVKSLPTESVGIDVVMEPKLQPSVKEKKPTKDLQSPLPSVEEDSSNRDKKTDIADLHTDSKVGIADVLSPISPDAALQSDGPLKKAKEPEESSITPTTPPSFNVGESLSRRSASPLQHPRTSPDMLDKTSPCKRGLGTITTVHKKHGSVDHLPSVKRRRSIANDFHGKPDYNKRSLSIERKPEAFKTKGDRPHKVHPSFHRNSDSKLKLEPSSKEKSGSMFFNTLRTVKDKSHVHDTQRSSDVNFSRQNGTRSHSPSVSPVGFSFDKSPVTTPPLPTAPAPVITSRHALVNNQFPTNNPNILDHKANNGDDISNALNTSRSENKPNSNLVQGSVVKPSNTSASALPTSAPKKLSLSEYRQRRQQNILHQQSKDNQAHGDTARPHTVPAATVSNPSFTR

Sc_Snt2p (S. cerevisiae) = biological target: T2, Sc_Snt2p (S. cerevisiae) (UniProt P53127); assay: affinity purification with mass spectrometry; TAP of baits TAP-tagged at their genes from S. cerevisiae extracts; eluates on 6-18% gels, Coomassie, bands and slices identified by MALDI peptide mapping and LC-MS/MS; common background removed, A-index cut-off 1.75
T2 sequence: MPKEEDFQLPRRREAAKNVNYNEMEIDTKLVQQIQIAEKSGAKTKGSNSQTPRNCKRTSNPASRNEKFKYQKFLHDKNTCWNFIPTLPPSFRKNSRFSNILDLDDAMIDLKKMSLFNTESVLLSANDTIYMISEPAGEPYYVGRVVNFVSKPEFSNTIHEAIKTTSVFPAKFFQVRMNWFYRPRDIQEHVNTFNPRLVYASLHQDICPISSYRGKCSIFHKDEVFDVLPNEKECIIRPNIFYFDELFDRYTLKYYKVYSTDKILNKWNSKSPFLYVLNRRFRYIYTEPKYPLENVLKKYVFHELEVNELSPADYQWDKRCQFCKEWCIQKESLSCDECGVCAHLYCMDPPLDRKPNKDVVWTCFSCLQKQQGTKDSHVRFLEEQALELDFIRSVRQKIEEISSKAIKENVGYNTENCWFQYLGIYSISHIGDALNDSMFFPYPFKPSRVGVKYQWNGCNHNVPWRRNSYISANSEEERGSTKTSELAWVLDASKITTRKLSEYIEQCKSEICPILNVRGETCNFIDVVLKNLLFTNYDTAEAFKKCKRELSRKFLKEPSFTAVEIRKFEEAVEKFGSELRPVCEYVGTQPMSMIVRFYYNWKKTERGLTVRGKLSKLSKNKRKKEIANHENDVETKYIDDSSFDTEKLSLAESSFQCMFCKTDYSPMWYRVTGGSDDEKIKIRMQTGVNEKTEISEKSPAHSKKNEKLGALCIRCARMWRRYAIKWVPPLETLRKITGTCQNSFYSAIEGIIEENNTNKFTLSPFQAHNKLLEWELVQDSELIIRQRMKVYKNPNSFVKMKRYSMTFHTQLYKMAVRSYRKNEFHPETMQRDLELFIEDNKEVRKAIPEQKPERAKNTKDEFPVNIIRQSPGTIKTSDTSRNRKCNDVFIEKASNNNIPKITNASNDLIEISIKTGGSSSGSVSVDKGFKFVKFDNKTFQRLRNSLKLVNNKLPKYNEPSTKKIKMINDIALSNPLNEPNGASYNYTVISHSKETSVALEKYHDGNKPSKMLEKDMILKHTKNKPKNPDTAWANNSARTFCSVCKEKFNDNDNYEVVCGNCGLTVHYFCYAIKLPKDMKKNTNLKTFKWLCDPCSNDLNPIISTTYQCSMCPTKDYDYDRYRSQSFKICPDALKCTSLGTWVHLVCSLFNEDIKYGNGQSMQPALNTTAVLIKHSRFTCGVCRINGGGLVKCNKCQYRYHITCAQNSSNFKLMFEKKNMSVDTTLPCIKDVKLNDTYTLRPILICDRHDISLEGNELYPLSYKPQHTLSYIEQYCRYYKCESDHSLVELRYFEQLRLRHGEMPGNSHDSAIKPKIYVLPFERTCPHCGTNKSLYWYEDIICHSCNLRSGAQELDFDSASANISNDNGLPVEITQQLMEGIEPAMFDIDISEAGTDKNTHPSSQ

Sc_Tos4p (S. cerevisiae) = biological target: T3, Sc_Tos4p (S. cerevisiae) (UniProt Q06266); assay: as above
T3 sequence: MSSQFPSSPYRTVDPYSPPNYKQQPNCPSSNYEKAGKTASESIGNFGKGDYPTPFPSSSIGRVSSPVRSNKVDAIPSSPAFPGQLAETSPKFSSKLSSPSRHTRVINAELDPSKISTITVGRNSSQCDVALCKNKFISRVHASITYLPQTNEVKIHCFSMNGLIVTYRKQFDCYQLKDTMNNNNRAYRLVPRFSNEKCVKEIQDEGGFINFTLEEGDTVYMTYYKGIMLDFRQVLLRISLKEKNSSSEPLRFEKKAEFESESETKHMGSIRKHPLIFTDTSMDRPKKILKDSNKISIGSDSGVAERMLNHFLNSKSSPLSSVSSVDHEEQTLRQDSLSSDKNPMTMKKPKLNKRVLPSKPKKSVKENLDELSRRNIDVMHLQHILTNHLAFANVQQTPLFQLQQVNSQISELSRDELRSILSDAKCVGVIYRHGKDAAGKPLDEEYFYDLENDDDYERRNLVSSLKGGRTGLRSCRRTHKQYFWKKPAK

binding (Sp_Set3p (S. pombe)): binds
B1: Sp_Hif2p (protein, UniProt O74845 1-564)
chain: MDTNQVNYIIWRYLKECGYSHTKFAFERETGIQNLDKQWGSTCQVGALVEILQKGLQYVELEKHYVDNHSSNEEASKTSIDGESLVNENPCKLPFYLTVPHICETTLTKADSTNGFCEHNNSNDHQLKILQDKGSGSPSSPVMPFKDKIEKRDIDITMADESNVEKDPARPIAVYNSSPVTEITEIKQVTFTGGEDIKSDFFKVIPTKHPVTCADWRPLLQENYHVYEFSIGMTNATLASVSICEEQNDFKAKTDYCLQSSFDNQDITGVAWNNSGSFLAYAFFSGVIEIYDSHGSQILSFHNNKGPVLSLKWSGTDTYLAAGSADGTITLFDQLKQTQYSIDTLASSVLDIEWISFDEFVTSDVEGSLRVYKVDGKAPVSTVSHAHDNSIVALRYNLRISLLLTASSDTTVKLWSRGDAGAFECLHVFSFSSPVNCIDWNLREGTPILAVASNSIVSMYNAISLQQLAVFMRHTAPVSALSFSHNGRYLATGDTSGGVCIWSCKTAKLFKELGSDNSELIAVTNVLPEEQVNFLRWSFDDKDLLIGKQKKEIICCCDFLHDSL

binding (Sc_Snt2p (S. cerevisiae)): binds
B2: Sc_Rpd3p (protein, UniProt P32561 1-433)
chain: MVYEATPFDPITVKPSDKRRVAYFYDADVGNYAYGAGHPMKPHRIRMAHSLIMNYGLYKKMEIYRAKPATKQEMCQFHTDEYIDFLSRVTPDNLEMFKRESVKFNVGDDCPVFDGLYEYCSISGGGSMEGAARLNRGKCDVAVNYAGGLHHAKKSEASGFCYLNDIVLGIIELLRYHPRVLYIDIDVHHGDGVEEAFYTTDRVMTCSFHKYGEFFPGTGELRDIGVGAGKNYAVNVPLRDGIDDATYRSVFEPVIKKIMEWYQPSAVVLQCGGDSLSGDRLGCFNLSMEGHANCVNYVKSFGIPMMVVGGGGYTMRNVARTWCFETGLLNNVVLDKDLPYNEYYEYYGPDYKLSVRPSNMFNVNTPEYLDKVMTNIFANLENTKYAPSVQLNHTPRDAEDLGDVEEDSAEAKDTKGGSQYARDLHVEHDNEFY

binding (Sc_Tos4p (S. cerevisiae)): binds
B3: Sc_Hos4p (protein, UniProt P40480 1-1083)
chain: MNETTTKQPLKKRSLSSYLSNVSTRREELEKISKQETSEEEDTAGKHEQRETLSEEVSDKFPENVASFRSQTTSVHQATQNNLNAKESEDLAHKNDASSHEGEVNGDSRPDDVPETNEKISQAIRAKISSSSSSPNVRNVDIQNHQPFSRDQLRAMLKEPKRKTVDDFIEEEGLGAVEEEDLSDEVLEKNTTEPENVEKDIEYSDSDKDTDDVGSDDPTAPNSPIKLGRRKLVRGDQLDATTSSMFNNESDSELSDIDDSKNIALSSSLFRGGSSPVKETNNNLSNMNSSPAQNPKRGSVSRSNDSNKSSHIAVSKRPKQKKGIYRDSGGRTRLQIACDKGKYDVVKKMIEEGGYDINDQDNAGNTALHEAALQGHIEIVELLIENGADVNIKSIEMFGDTPLIDASANGHLDVVKYLLKNGADPTIRNAKGLTAFESVDDESEFDDEEDQKILREIKKRLSIAAKKWTNRAGIHNDKSKNGNNAHTIDQPPFDNTTKAKNEKAADSPSMASNIDEKAPEEEFYWTDVTSRAGKEKLFKASKEGHLPYVGTYVENGGKIDLRSFFESVKCGHEDITSIFLAFGFPVNQTSRDNKTSALMVAVGRGHLGTVKLLLEAGADPTKRDKKGRTALYYAKNSIMGITNSEEIQLIENAINNYLKKHSEDNNDDDDDDDNNNETYKHEKKREKTQSPILASRRSATPRIEDEEDDTRMLNLADDDFNNDRDVKESTTSDSRKRLDDNENVGTQYSLDWKKRKTNALQDEEKLKSISPLSMEPHSPKKAKSVEISKIHEETAAEREARLKEEEEYRKKRLEKKRKKEQELLQKLAEDEKKRIEEQEKQKVLEMERLEKATLEKARKMEREKEMEEISYRRAVRDLYPLGLKIINFNDKLDYKRFLPLYYFVDEKNDKFVLDLQVMILLKDIDLLSKDNQPTSEKIPVDPSHLTPLWNMLKFIFLYGGSYDDKKNNMENKRYVVNFDGVDLDTKIGYELLEYKKFVSLPMAWIKWDNVVIENHAKRKEIEGNMIQISINEFARWRNDKLNKAQQPTRKQRSLKIPRELPVKFQHRMSISSVLQQTSKEPFW

binding (Sp_Set3p (S. pombe)): binds
B4: Sp_Hda1 (protein, UniProt O13298 1-434)
chain: MDTPETSTPYEQVEKGSFFSFRPQKKRVTYHLDEQVGNYHYGDKHPMKPHRITITNHLVMGYGLHNKMSVFSPRMATFGEMSEFHREDYLDFLKRVTPDNAEQFADKFQQFNIGDDCPVFDGTYEFSQRSAGASLDASRKLVQGQTDIAINWSGGLHHAKRGEASGFCYVNDIVLAILNMLRFFPRVLYIDIDIHHGDGVQQAFYESDRVLTVSFHKYNGDFFPATGNFDENGVKGGKYFALNVPLEDGIGDEQYTSLFKSIIEPTINTFQPSAIVLQCGADSLGYDRLGVFNLSIHAHGECVRFTRSFNIPMLVVGGGGYTLRNVARAWCYETSICVNEQIPSELPRETLYYEFFAPDYTLHPRLTTKIENKNTPKALEDLRIRALEQLRYLGGAPSVQMQQIPPDLTGHLEEEDERLNDEYLDKAVDVRVRG
